Data from PMC12670164, “In vitro and clinical data demonstrate negligible risk of drug–drug interactions with opelconazole, a novel inhaled antifungal agent” (Journal of Antimicrobial Chemotherapy, 2025).

Experiment: Phase 1 study: plasma pharmacokinetics of inhaled opelconazole in healthy volunteers
Assay type: in vivo, human
Conditions: multiple inhaled doses, clinical dosing
Protocol: The study was conducted from February 2023 through June 2023 in accordance with the Declaration of Helsinki, Good Clinical Practice, and the International Conference on Harmonisation guidelines (South African National Clinical Trial Registry code: DOH-27-122022-5196). The study documents were approved by an Independent Ethics Committee. Study participants provided written informed consent prior to any study procedures.
Screening occurred within 28 days prior to the first dosing day (Figure 1). Participants were admitted to the study centre on Day −1 and were required to stay there until approximately 48 h after the morning dosing on Day 15. They returned for subsequent PK blood samples at approximately 72 (Day 18), 168 (Day 22) and 336 h (Day 29) after the last morning dosing. On Days 1 and 15, participants received oral midazolam 7.5 mg and oral caffeine 180 mg together after food ingestion.
Standard doses of midazolam and caffeine were used to characterize their PK profiles. […]
Primary PK parameters assessed for midazolam and its metabolites (1-OH-midazolam, 4-OH-midazolam), caffeine and opelconazole were Cmax and AUC, from time zero to t, where t is the time of the last quantifiable concentration (AUC(0−t); i.e., AUC(0−12) and AUC(0−24)). […]

Cc1cc(N2CCN(c3ccc(C(=O)Nc4ccc(F)cc4)cc3)CC2)ccc1OC[C@@H]1CO[C@@](Cn2cncn2)(c2ccc(F)cc2F)C1 [opelconazole]
systemic Cmax at steady state: 7 ng/mL and ≤ 6.830 ng/mL

Some entries of the source have several records that differ or are many. This list holds those alone. The source may hold further records. Values given together differ, and nothing given here explains why; some may be repeats, others may stem from another dose, organism or construct than stated.
